Assay results taken from publication PMC12004613.

Assays:
[1] = biological target: USUV NS4A fused to the biotin ligase TurboID (TurboID-NS4A) (Usutu virus (Netherlands 2016 strain)); assay: proximity labelling; TurboID fusions of NS4A transfected separately into 293T cells; 50 uM biotin for 1 h at 24 hpt; lysis in 0.5% NP-40 buffer; biotinylated proteins precipitated with NeutrAvidin agarose, washed with 1% SDS; mass spectrometry; compared with empty vector
[2] = biological target: USUV NS4A fused to the biotin ligase TurboID (NS4A-TurboID) (Usutu virus (Netherlands 2016 strain)); assay: as above

B1: TMEM41B, endogenous in 293T cells (protein, UniProt Q5BJD5 1-291)
chain: MAKGRVAERSQLGAHHTTPVGDGAAGTRGLAAPGSRDHQKEKSWVEAGSARMSLLILVSIFLSAAFVMFLVYKNFPQLSEEERVNMKVPRDMDDAKALGKVLSKYKDTFYVQVLVAYFATYIFLQTFAIPGSIFLSILSGFLYPFPLALFLVCLCSGLGASFCYMLSYLVGRPVVYKYLTEKAVKWSQQVERHREHLINYIIFLRITPFLPNWFINITSPVINVPLKVFFIGTFLGVAPPSFVAIKAGTTLYQLTTAGEAVSWNSIFILMILAVLSILPAIFQKKLKQKFE
modifications: biotinylated by TurboID (sites not given)
B1 was tested. Which binding [1] did it give?
Its binding is “binds”.

And the binding [2]?
The binding was “binds”.

No constants are given. Whether binding was seen depends on the method and setting. Binding seen in cells or lysates may run through a third protein. These calls come from enrichment with a bait or labelling near it, and not all partners need be listed.
